Experimental data: PubChem BioAssay AID504784 (Drosophila RNAi Screening Center, 2011)
The deposit covers about 17,000 reagents; this is a random part of those that have a named target and a result. 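Each column is one replicate's B-score; the combined score over replicates was not deposited, so single values may mislead.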 Reagents against one gene are numbered here.

Assay: 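Fly genes whose silencing alters how much lipid cells keep in droplets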 (primary screen)
Cells: Drosophila Kc167 embryonic cells
Reagents: long dsRNA against Drosophila genes, about 250 ng dsRNA per well
Timing: 4 days
Treatment: cells fed 400 µM oleic acid bound to BSA
Measured: 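Microscope images give a droplet-to-nucleus area ratio, taken as log and converted to a screen-wide B-score; higher values mean greater lipid storage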
Scale: droplet/nuclear area B-score: higher = more stored lipid (overstorage)

With Pif1A (GeneID 8674049), what does the deposit list?
droplet/nuclear area B-score, replicate 1: -0.678; droplet/nuclear area B-score, replicate 2: -0.755

For VhaM9.7-d (GeneID 42041), how do the results read?
droplet/nuclear area B-score, replicate 1: -0.904; droplet/nuclear area B-score, replicate 2: 0.211

Which result is listed for betaTub65B (GeneID 117406)?
droplet/nuclear area B-score, replicate 1: -0.94; droplet/nuclear area B-score, replicate 2: 1.16

With SdhAL (GeneID 39348), what does the deposit list?
droplet/nuclear area B-score, replicate 1: 0.397; droplet/nuclear area B-score, replicate 2: 1.72

Which result is listed for CG9147 (GeneID 33855)?
droplet/nuclear area B-score, replicate 1: -2.24; droplet/nuclear area B-score, replicate 2: -0.00773

Which result is listed for CG8701 (GeneID 35812)?
droplet/nuclear area B-score, replicate 1: -0.623; droplet/nuclear area B-score, replicate 2: -1.75

For CG31296 (GeneID 318668), how do the results read?
droplet/nuclear area B-score, replicate 1: -0.684; droplet/nuclear area B-score, replicate 2: 0.147

For lqf (GeneID 38846), what was measured?
droplet/nuclear area B-score, replicate 1: 0.326; droplet/nuclear area B-score, replicate 2: 1.62

What is on record for Pka-C2 (GeneID 43644) #1?
droplet/nuclear area B-score, replicate 1: 1.28; droplet/nuclear area B-score, replicate 2: -2.01

How did the screen score Pka-C2 (GeneID 43644) #2?
droplet/nuclear area B-score, replicate 2: 0.545

For CG15375 (GeneID 31356), what was measured?
droplet/nuclear area B-score, replicate 1: -1.38; droplet/nuclear area B-score, replicate 2: -1.27

For Adk2 (GeneID 39479), how do the results read?
droplet/nuclear area B-score, replicate 1: 0.345; droplet/nuclear area B-score, replicate 2: -1.08

For ND-13A (GeneID 33744), how do the results read?
droplet/nuclear area B-score, replicate 1: -0.128; droplet/nuclear area B-score, replicate 2: 0.448

How did the screen score CG7099 (GeneID 34753)?
droplet/nuclear area B-score, replicate 1: 0.0379; droplet/nuclear area B-score, replicate 2: 0.265

How did the screen score CG31251 (GeneID 318645)?
droplet/nuclear area B-score, replicate 1: -2.02; droplet/nuclear area B-score, replicate 2: -0.444

Which result is listed for Rala (GeneID 31332)?
droplet/nuclear area B-score, replicate 1: 0.846; droplet/nuclear area B-score, replicate 2: -0.579

How did the screen score ND-24L (GeneID 39926)?
droplet/nuclear area B-score, replicate 1: -1.2; droplet/nuclear area B-score, replicate 2: -0.1

How did the screen score CG17834 (GeneID 34191)?
droplet/nuclear area B-score, replicate 1: 1.47; droplet/nuclear area B-score, replicate 2: 1.99

With Sqor (GeneID 38514), how do the results read?
droplet/nuclear area B-score, replicate 1: 0.105

For Septin1 (GeneID 33114), what does the deposit list?
droplet/nuclear area B-score, replicate 1: 2.2; droplet/nuclear area B-score, replicate 2: -1.32

What did the screen give for Fer2 (GeneID 41961)?
droplet/nuclear area B-score, replicate 1: 0.452; droplet/nuclear area B-score, replicate 2: -1.82

What is on record for TwdlF (GeneID 40534)?
droplet/nuclear area B-score, replicate 1: -0.239; droplet/nuclear area B-score, replicate 2: -0.924; droplet/nuclear area B-score, replicate 3: -0.783

How did the screen score Dd (GeneID 33107)?
droplet/nuclear area B-score, replicate 1: 0.656; droplet/nuclear area B-score, replicate 2: -0.221

For CG8531 (GeneID 36584), what was measured?
droplet/nuclear area B-score, replicate 1: -1.37; droplet/nuclear area B-score, replicate 2: -1.44

For CG15650 (GeneID 37373), what does the deposit list?
droplet/nuclear area B-score, replicate 1: 1.34; droplet/nuclear area B-score, replicate 2: -0.473

Which result is listed for CG31436 (GeneID 318734)?
droplet/nuclear area B-score, replicate 1: 0.95; droplet/nuclear area B-score, replicate 2: 0.0922

How did the screen score serp (GeneID 40150) #1?
droplet/nuclear area B-score, replicate 1: -1.09; droplet/nuclear area B-score, replicate 2: 0.142

How did the screen score serp (GeneID 40150) #2?
droplet/nuclear area B-score, replicate 1: -0.638; droplet/nuclear area B-score, replicate 2: -0.592

For CG13002 (GeneID 32681), how do the results read?
droplet/nuclear area B-score, replicate 1: -0.25; droplet/nuclear area B-score, replicate 2: -0.249

With Hsp67Ba (GeneID 39076), what was measured?
droplet/nuclear area B-score, replicate 1: -1.19; droplet/nuclear area B-score, replicate 2: -0.665

What did the screen give for Naa35 (GeneID 37866)?
droplet/nuclear area B-score, replicate 1: 0.804; droplet/nuclear area B-score, replicate 2: 2.23

Which result is listed for CG42490 (retired record) (GeneID 8674118)?
droplet/nuclear area B-score, replicate 1: 0.789; droplet/nuclear area B-score, replicate 2: 0.745

For Rab9 (GeneID 35221), what was measured?
droplet/nuclear area B-score, replicate 1: 0.274; droplet/nuclear area B-score, replicate 2: -1.52

How did the screen score CG3483 (GeneID 37900)?
droplet/nuclear area B-score, replicate 1: 0.409; droplet/nuclear area B-score, replicate 2: 0.607

For DCP1 (GeneID 37790), how do the results read?
droplet/nuclear area B-score, replicate 1: 2.18; droplet/nuclear area B-score, replicate 2: -0.787

How did the screen score CG9485 (GeneID 37435)?
droplet/nuclear area B-score, replicate 1: -2.3; droplet/nuclear area B-score, replicate 2: -0.521

For CG13998 (GeneID 50423), what does the deposit list?
droplet/nuclear area B-score, replicate 1: 0.519; droplet/nuclear area B-score, replicate 2: 0.75

What is on record for Mcm7 (GeneID 39014)?
droplet/nuclear area B-score, replicate 1: 0.535; droplet/nuclear area B-score, replicate 2: -1.75

How did the screen score CG5013 (GeneID 41951)?
droplet/nuclear area B-score, replicate 1: -1.18; droplet/nuclear area B-score, replicate 2: 0.865

With MFS15 (GeneID 37168), what was measured?
droplet/nuclear area B-score, replicate 1: 0.338; droplet/nuclear area B-score, replicate 2: 0.218

Quoted from above for reference:
CG31436 (GeneID 318734): droplet/nuclear area B-score, replicate 1 = 0.95; droplet/nuclear area B-score, replicate 2 = 0.0922
serp (GeneID 40150) #1: droplet/nuclear area B-score, replicate 1 = -1.09; droplet/nuclear area B-score, replicate 2 = 0.142
serp (GeneID 40150) #2: droplet/nuclear area B-score, replicate 1 = -0.638; droplet/nuclear area B-score, replicate 2 = -0.592
CG13002 (GeneID 32681): droplet/nuclear area B-score, replicate 1 = -0.25; droplet/nuclear area B-score, replicate 2 = -0.249
